Assay results from PMC2948501.
No constants are given. Whether binding was seen depends on the method and setting. In cells and extracts the contact can be indirect. Where a sequence is shown, tags or fusion partners need not be part of it.

Experiments:
[1] = biological target: T1, Smac56-V5, stably expressed in the cytosol (Ub-Smac56-V5, IRES2.eGFP) (human), Q9NR28; assay: co-IP; pellets of 911 cells transiently expressing a FLAG-IAP combined with cells transiently or stably expressing Ub-Smac56-V5 (stable lines treated 12 h with 20 µM zIEALal), lysed together (150 mM NaCl, 20 mM Tris-HCl pH 7.5, 0.2% NP-40); immunoprecipitation with polyclonal V5 antibody and protein A/G agarose; western blot for FLAG; settings: remark: other sources report otherwise
T1 chain: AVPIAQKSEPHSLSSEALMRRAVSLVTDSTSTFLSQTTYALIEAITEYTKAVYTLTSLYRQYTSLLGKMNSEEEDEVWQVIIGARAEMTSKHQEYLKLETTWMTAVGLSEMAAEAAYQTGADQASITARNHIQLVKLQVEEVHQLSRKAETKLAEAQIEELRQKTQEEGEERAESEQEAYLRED

[2] = biological target: T2, Smac56-V5, transiently expressed from Ub-Smac56-V5 (IRES2.eGFP) (human), Q9NR28; assay: as above; settings: remark: other sources report otherwise
T2 chain: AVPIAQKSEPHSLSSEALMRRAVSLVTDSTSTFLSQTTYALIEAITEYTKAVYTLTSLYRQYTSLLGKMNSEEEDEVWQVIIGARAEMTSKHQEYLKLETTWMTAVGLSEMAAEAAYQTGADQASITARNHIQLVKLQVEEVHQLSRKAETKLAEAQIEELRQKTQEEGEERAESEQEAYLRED

B1: FLAG-tagged Livin alpha (p3XFLAG.CMV10), Q96CA5-1 1-298 (protein)
chain: MGPKDSAKCLHRGPQPSHWAAGDGPTQERCGPRSLGSPVLGLDTCRAWDHVDGQILGQLRPLTEEEEEEGAGATLSRGPAFPGMGSEELRLASFYDWPLTAEVPPELLAAAGFFHTGHQDKVRCFFCYGGLQSWKRGDDPWTEHAKWFPSCQFLLRSKGRDFVHSVQETHSQLLGSWDPWEEPEDAAPVAPSVPASGYPELPTPRREVQSESAQEPGGVSPAEAQRAWWVLEPPGARDVEAQLRRLQEERTCKVCLDRAVSIVFVPCGHLVCAECAPGLQLCPICRAPVRSRVRTFLS
For B1, the binding [1] was “no binding” and the binding [2] was “no binding”.
